Assay results from paper PMC8260731.

Protein sequences, listed by entry. Tags and fused reporters are not part of them.
UniProt Q01105: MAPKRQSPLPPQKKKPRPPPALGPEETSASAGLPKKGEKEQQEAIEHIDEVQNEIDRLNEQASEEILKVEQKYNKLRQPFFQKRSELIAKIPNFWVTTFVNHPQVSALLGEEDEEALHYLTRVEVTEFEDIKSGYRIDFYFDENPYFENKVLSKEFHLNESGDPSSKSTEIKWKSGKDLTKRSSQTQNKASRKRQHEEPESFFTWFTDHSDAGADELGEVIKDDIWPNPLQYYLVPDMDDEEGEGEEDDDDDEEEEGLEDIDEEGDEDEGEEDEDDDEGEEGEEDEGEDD
UniProt P04406: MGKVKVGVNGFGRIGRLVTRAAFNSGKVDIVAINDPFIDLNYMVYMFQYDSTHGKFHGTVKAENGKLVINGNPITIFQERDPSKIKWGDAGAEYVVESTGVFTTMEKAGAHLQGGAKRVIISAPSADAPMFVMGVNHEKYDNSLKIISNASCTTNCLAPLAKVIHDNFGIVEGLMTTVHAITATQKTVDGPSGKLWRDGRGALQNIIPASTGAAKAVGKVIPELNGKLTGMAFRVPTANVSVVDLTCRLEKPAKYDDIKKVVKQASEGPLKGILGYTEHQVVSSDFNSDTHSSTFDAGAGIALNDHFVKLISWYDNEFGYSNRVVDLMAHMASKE

Target: GFP-SET (UniProt Q01105)
Test: affinity purification with mass spectrometry; immunoprecipitation of GFP-SET or GFP with the anti-GFP antibody, mass spectrometry of the immunoprecipitated proteins

In the case of “glyceraldehyde-3-phosphate dehydrogenase (from UniProt P04406 1-335)”, the binding is reported as “binds”.

B1: SAP18 (protein, UniProt O00422 1-153)
chain: MAVESRVTQEEIKKEPEKPIDREKTCPLLLRVFTTNNGRHHRMDEFSRGNVPSSELQIYTWMDATLKELTSLVKEVYPEARKKGTHFNFAIVFTDVKRPGYRVKEIGSTMSGRKGTDDSMTLQSQKFQIGDYLDIAITPPNRAPPPSGRMRPY
For B1, the binding was “binds”.

No constants are given. Whether binding was seen depends on the method and setting. In cells and extracts the contact can be indirect. Here binding means that the protein was enriched with, or labelled near, the bait; the list need not be complete.
